Results from paper doi:10.1101/2020.05.20.107144.
Results are given in words; binding and its absence hold for the method and conditions named. Some results given as binding are weak or reduced against the parent protein; the word gives no strength.

Sequences of proteins named here, by UniProt entry; tags and fusion partners are left off.
UniProt Q15477, whole entry: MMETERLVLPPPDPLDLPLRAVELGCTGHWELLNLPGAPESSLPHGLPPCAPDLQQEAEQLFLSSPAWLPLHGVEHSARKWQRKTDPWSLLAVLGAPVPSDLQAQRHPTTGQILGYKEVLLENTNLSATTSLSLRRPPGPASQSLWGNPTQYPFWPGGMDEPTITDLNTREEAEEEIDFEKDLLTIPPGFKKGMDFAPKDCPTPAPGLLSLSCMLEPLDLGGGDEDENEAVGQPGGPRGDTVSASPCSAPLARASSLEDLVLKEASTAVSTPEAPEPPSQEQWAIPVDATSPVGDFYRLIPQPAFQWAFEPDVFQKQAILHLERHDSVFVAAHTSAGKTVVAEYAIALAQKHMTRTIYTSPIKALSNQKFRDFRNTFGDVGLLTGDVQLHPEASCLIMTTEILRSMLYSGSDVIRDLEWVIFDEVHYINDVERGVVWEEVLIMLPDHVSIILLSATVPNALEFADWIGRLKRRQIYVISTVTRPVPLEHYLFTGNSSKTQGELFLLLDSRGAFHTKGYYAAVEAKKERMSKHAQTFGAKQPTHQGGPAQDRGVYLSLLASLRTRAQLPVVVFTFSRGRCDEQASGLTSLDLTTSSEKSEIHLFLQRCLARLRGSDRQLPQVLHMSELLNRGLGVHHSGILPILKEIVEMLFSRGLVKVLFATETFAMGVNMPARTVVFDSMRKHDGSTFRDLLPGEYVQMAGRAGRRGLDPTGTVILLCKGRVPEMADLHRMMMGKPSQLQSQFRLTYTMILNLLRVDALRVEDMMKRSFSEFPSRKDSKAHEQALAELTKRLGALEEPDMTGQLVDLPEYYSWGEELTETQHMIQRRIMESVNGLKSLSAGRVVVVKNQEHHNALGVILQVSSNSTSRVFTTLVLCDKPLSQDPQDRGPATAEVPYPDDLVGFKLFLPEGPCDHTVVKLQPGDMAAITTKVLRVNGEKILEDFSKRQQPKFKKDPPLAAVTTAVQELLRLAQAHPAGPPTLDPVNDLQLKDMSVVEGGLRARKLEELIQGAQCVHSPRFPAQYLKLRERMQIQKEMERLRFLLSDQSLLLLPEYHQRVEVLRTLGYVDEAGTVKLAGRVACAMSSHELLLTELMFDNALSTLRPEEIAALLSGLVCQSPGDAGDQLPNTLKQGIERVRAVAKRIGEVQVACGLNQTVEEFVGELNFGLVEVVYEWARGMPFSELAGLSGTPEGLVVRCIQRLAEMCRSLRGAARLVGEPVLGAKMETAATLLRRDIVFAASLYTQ
UniProt Q6PGP7, whole entry: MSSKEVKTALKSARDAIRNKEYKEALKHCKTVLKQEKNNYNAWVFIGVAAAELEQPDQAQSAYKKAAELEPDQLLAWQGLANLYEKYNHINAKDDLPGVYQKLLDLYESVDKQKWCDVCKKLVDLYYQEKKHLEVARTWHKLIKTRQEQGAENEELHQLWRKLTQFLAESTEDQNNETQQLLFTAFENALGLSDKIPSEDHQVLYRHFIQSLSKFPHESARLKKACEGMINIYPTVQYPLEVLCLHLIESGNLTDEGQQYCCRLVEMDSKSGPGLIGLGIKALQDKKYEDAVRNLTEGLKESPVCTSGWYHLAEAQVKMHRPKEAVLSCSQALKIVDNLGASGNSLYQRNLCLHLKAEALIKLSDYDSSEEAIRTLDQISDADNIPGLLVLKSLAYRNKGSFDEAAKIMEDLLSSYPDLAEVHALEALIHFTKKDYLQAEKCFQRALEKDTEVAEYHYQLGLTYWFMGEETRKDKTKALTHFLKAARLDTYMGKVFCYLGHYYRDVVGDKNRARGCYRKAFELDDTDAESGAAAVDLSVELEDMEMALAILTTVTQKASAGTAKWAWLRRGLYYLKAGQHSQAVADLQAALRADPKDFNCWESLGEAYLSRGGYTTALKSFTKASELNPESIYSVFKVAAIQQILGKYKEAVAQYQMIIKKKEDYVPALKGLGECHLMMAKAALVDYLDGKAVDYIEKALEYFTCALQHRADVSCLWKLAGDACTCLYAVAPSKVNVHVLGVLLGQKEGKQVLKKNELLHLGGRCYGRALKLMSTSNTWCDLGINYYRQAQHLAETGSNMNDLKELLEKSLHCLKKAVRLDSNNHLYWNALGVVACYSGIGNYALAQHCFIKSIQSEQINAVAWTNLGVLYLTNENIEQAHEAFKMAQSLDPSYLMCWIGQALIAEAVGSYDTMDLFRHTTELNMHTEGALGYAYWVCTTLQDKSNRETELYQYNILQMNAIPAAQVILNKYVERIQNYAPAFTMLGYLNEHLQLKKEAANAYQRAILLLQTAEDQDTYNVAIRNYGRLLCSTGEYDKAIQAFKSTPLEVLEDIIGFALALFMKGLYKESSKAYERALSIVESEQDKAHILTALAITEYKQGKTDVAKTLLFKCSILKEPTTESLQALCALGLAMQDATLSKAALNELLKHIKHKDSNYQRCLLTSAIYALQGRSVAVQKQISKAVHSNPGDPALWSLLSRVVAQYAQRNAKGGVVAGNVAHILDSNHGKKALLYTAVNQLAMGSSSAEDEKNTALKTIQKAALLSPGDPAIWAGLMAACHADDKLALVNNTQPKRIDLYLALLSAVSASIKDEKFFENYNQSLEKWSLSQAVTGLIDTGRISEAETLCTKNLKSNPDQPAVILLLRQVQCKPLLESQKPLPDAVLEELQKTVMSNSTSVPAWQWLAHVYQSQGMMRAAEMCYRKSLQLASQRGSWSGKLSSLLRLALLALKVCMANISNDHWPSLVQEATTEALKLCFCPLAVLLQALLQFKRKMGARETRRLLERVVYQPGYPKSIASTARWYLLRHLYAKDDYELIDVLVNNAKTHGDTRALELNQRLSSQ

Molecular target: SKIV2L, N-terminus MBP-tagged (subunit of the human SKI complex, hSKI) (human) (UniProt Q15477)
Assay: co-purification

With “TTC37, N-terminus His-Flag tagged (subunit of the human SKI complex, hSKI) (from UniProt Q6PGP7 1-1564)” the binding was “binds”.
